Drawing on patent US20260242453A1, this text covers binding for two molecules.

Amino acid sequences for entries named in this document (tags omitted). Residues count along the entry.
UniProt P04280, residues 17-392: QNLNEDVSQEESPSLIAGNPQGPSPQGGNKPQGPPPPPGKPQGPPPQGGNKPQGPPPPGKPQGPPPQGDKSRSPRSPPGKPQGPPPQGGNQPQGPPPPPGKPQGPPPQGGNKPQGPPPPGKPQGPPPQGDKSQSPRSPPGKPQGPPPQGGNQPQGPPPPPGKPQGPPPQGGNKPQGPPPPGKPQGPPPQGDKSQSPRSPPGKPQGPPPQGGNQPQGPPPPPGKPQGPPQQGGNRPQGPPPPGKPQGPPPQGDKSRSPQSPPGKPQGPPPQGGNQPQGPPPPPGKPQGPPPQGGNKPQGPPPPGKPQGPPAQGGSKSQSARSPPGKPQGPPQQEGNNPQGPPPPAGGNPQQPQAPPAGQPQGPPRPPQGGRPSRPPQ

Results are given in words; binding and its absence hold for the method and conditions named. Some results given as binding are weak or reduced against the parent protein; the word gives no strength.

For assay [1], the target named is human PRB1 protein (human) (UniProt P04280). Briefly: sandwich ELISA, 2B3 mAb as capture and 8A10 mAb as detection antibody, saliva and serum specimens. Background: An ELISA detects its analyte on a solid surface through an enzyme-linked reagent.
For assay [2] the target is unchanged. Briefly: sandwich ELISA, 2B3 capture and 8A10 detection, human saliva and serum samples.
For assay [3] the target is unchanged. The assay can be described thus: Western blot of saliva; pull-down assay from serum. In general terms: In western blotting, separated proteins are transferred to a membrane and probed.
For assay [4] the target is unchanged. The assay can be described thus: sandwich ELISA, 2B3 mAb coated as capture antibody and 8A10 mAb as detection antibody, saliva and serum specimens.

B1: Rat anti-hPRB1 IgG (8A10) mAb (antibody, V domains shown)
VH: QVNLLQSGAALVKPGASVKLSCKASGYTFTDYYIHWVRQSHGKSLEWIGFINPNSGYTTYNEKFKSKATLTVDKSTNTAYMELSRLTSEDSATYYCTRFAMDAWGQGASVTVSS
VL: DVVVSQTPPTLSATIGQSVSISCRSSQSLLHSNGNTYLNWLLQRPGQPPQLLIYLVSRLESGVPNRFSGSGSGTDFTLKISGVEAEDLGVYYCVQSIHAPNTFGAGTKLELK
As for B1, the binding result in assay [1], in assay [2] and in assay [3] was “binds” each time.

B2: Rat anti-hPRB1 IgM (2B3) mAb (antibody, V domains shown)
VH: QIQLVQSGPELKKPGESVKISCKASGYTFTDYAMHWVKQAPGKGLKWMGWINTYTGKPTYADDCKGRFVFSLEASASTANLQISNLKNEDTATYFCAREMYTTDYYYVDYWGQGVMVTVSS
VL: DIHVTQSPASLSASPEEIVTITCQASQDIDSSLLWYQQKPGKSPQLLIYSATILADGVPSRFSGSRSGTQYSLKISRLQVEDIGTYYCLQFSSSPLTFGSGTKLEIK
B2: the binding result in assay [4] and in assay [2] was “binds” in each case.
